The record followed here is article PMC11671579.

Protein sequences, listed by entry. Tags and fused reporters are not part of them. Residues count along the entry.
UniProt Q01638, residues 19-556: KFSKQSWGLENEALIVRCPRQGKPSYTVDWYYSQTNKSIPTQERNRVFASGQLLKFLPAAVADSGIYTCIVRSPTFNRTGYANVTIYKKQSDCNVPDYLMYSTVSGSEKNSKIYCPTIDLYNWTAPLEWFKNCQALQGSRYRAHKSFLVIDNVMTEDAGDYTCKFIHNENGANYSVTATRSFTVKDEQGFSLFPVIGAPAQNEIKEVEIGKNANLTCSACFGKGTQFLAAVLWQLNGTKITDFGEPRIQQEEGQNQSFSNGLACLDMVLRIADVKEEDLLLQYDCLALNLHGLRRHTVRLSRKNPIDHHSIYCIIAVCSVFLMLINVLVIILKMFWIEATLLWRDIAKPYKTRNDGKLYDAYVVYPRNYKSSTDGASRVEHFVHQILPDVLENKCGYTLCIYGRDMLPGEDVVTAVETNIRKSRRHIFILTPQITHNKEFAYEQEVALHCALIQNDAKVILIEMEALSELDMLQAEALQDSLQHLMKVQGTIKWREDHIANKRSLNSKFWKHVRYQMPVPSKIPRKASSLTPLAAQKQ
UniProt Q99836: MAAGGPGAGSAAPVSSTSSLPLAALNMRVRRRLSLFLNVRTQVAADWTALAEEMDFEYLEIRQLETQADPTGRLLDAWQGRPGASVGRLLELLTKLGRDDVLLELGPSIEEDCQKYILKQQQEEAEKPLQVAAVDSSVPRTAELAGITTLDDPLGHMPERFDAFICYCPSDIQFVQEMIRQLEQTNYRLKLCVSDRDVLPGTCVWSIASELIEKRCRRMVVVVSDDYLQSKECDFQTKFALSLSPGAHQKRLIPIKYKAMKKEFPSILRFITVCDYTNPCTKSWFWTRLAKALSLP

Results are given in words; binding and its absence hold for the method and conditions named. Binding seen in cells or lysates may run through a third protein. Some results given as binding are weak or reduced against the parent protein; the word gives no strength.

The test concerns the target ST2 (stimulation 2, receptor of IL-33) (human (endogenous in neutrophils of RA patients)) (UniProt Q01638). Put plainly: co-IP; lysates of RA neutrophils stimulated with IL-33 (100 ng/mL) or PBS for 1 h; anti-ST2 capture antibody overnight at 4 °C, Protein A/G magnetic beads; western blotting.

For the substance MyD88 (from UniProt Q99836 1-296), the binding entry is on record as “binds”.
